PubChem BioAssay AID743121 – NCATS, 2013
Screen: 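Genes whose silencing strengthens cell killing by camptothecin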 (primary screen). System: MDA-MB-231 cells, a human breast cancer line. Knock-down reagent: single siRNA against human genes, 20 nM siRNA (0.8 pmol per well). Timing: 120 h (drug added 48 h after transfection, read 72 h later). Conditions: camptothecin 20 nM (about EC30) for 72 h; vehicle 0.1% DMSO in parallel plates. Read-out: 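Cell viability by ATP luminescence (CellTiter-Glo) as % of non-targeting siRNA wells, and the log2 ratio of viability without drug over viability with camptothecin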. Scale: log2 vehicle/camptothecin viability: higher = stronger sensitisation to camptothecin. Hit rule: 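Each gene scored by redundant siRNA activity (RSA) over its individual siRNA ratios; a gene is called active at p < 0.001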.
In all, the deposit lists about 26,000 reagents; this is an unselected part. Over the whole deposit, 167 (0.63%) got an active call. 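Calls are per gene from RSA p-values that are not deposited; an individual active-marked siRNA can sensitise only weakly.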 Reagents against one gene are numbered here. Further read-outs or replicates are left out here.

log2 vehicle/camptothecin viability, by gene symbol and reagent
AK3: #1 -0.525 inactive; #2 0.392 inactive; #3 0.798 inactive; #4 -0.0482 inactive
TUBGCP3: #1 -0.371 inactive; #2 -0.686 inactive; #3 -0.487 inactive; #4 -0.0882 inactive
BSND: #1 -0.0359 inactive; #2 -0.0164 inactive; #3 -0.412 inactive; #4 0.169 inactive
PDE4B: #1 -0.0782 inactive; #2 -0.23 inactive; #3 -0.149 inactive; #4 -0.604 inactive
KDM5C: #1 0.175 inactive; #2 -0.23 inactive; #3 0.249 inactive; #4 0.0493 inactive
IL27: #1 -0.045 inactive; #2 0.12 inactive; #3 -0.683 inactive; #4 -0.394 inactive
BUB1: #1 -0.17 inactive; #2 -0.205 inactive; #3 -0.784 inactive; #4 -0.187 inactive
MAST1: #1 -0.504 inactive; #2 0.038 inactive; #3 -0.339 inactive; #4 -0.0143 inactive
CCN1: #1 -0.164 inactive; #2 0.327 inactive; #3 -0.166 inactive; #4 -0.213 inactive
DLG4: #1 0.575 inactive; #2 -0.0109 inactive; #3 -0.0941 inactive; #4 0.0422 inactive
FAM89B: #1 -0.0703 inactive; #2 0.347 inactive; #3 -0.286 inactive; #4 -0.49 inactive
A1BG: #1 -0.393 inactive; #2 -0.131 inactive; #3 0.00096 inactive
ACKR4: #1 -0.2 inactive; #2 -0.0503 inactive; #3 -0.375 inactive; #4 0.00246 inactive
NCR3: #1 -0.366 inactive; #2 -0.447 inactive; #3 0.507 inactive; #4 -0.354 inactive
USP36: #1 0.166 inactive; #2 -0.459 inactive; #3 -0.105 inactive; #4 -0.0698 inactive
DPP9: #1 0.0864 inactive; #2 0.261 inactive; #3 0.438 inactive; #4 0.0249 inactive
DHRS12: #1 0.0676 inactive; #2 0.364 inactive; #3 -0.143 inactive; #4 -0.206 inactive
GPNMB: #1 -0.339 inactive; #2 0.177 inactive; #3 -0.309 inactive
